Measured data: PubChem BioAssay AID1259405 (NCATS, 2018)

- Purpose: 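Knock-downs that lift recombinant protein yield in hamster ovary cells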 (primary screen)
- Cell system: Chinese hamster CHO-K1 ovary cells with stable secreted eGFP expression
- Knock-down reagent: single siRNA against mouse genes, 0.8 pmol siRNA per well (2 µl of 400 nM stock)
- Timing: 3 days
- Detection: 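Percent of the per-plate non-targeting control median for intracellular GFP per well by laser scanning cytometry and for cell viability by ATP luminescence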
- Reading the numbers: GFP, % of control: higher = more GFP per well, higher productivity
- Hit rule: 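a knock-down is called active if GFP reaches 120% or more of non-targeting control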
Shown is a random part of about 50,000 reagents tested. Of all reagents, about 4,000 (8%) are marked active. 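Mouse siRNA library applied to hamster cells; one well for each siRNA.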 A number with no mark means an inactive call. Further read-outs or replicates are left out here.

GFP, % of control, by gene knocked down and reagent
Slc16a3: SID363574640 44.9; SID363575696 73.5; SID363580272 54.4
Mst1r: SID363571010 68
Nherf1: SID363581733 70; SID363589227 56.6
Ckb: SID363570863 98
Or4c11c: SID363554422 53.7; SID363567869 79.9; SID363585226 55.4
Snrpe: SID363569018 226 (active); SID363583450 110
Or8k28: SID363554283 103; SID363567730 15.7; SID363585087 84.7
Dctd: SID363545456 23; SID363548969 76.6; SID363562775 78.4
Ppat: SID363570693 77; SID363579493 106; SID363583365 63
Sgk1: SID363570790 73
Rad51ap1: SID363554882 64.6; SID363568329 88.1; SID363586388 51.8
Gem: SID363570067 153 (active); SID363576403 82.4; SID363579571 120
Tdpoz2: SID363547516 117; SID363558285 77.8; SID363560043 67.4
Or8b44: SID363554650 87.2; SID363568097 54.3; SID363586156 95.9

4 entries from above, reformatted.
gene knocked down	PubChem SID	GFP, % of control
Gem	SID363570067	153 (active)
Gem	SID363576403	82.4
Gem	SID363579571	120
Tdpoz2	SID363547516	117
